Data: EP3578180A1, “MODULATORS OF SERYL-TRNA SYNTHASE AND PHARMACEUTICAL COMPOSITIONS COMPRISING THE SAME FOR INCREASING CELL HYPOXIC TOLERANCE” (Centre National de la Recherche Scientifique (CNRS), priority 2018, dated 2019)
Entries after “also recorded” stand apart in the source; their conditions may differ. For at least one compound, name, drawing or mass did not settle the structure.

Columns and labels:
mice [1] = test: tMCAo stroke model, infarct volume (cresyl violet); type: in vivo; details: three IP injections 416 mM, 150µl, 48, 24 and 2h before tMCAo; 24h after tMCAo; Fig.3B
Method: Male 7-week old C57BL/6J mice (Janvier France Breeding) were housed in a temperature- and humidity-controlled animal facility with a 12-h light-dark cycle. Food and water were available ad libitum. All animal care and use were performed with in accordance to the policies of European Community Directive 86/609/EEC. All efforts were made to minimize animal suffering and the number of animals used.
tMCAO was performed 30 min after the final injection using a 6-0 coated filament (Doccol), as previously described (Bourourou, M., Heurteaux, C. & Blondeau, N. Alpha-linolenic acid given as enteral or parenteral nutritional intervention against sensorimotor and cognitive deficits in a mouse model of ischemic stroke. Neuropharmacology 108, 60-72, doi:10.1016/j.neuropharm.2016.04.040 (2016)). Control of tMCAo severity and reperfusion was evaluated monitoring the regional cerebral blood flow by laser-Doppler flowmetry. Infarct volume (mm^3) was mesured 24 h post-reperfusion on coronal frozen brain sections ([…]) stained by 1% cresyl violet in 0.25% acetic acid using a computer image analysis system.
Animals were randomly assigned to vehicle or serHX groups prepared for 3 experimental protocols. Protocol 1: Vehicle and serHX were administrated intraperitoneally (416 mM, 150µl IP) 48, 24, 2h before a 60min tMCAo. […]

mice [2] = test: Morris water maze test of cognitive recovery after tMCAo; type: in vivo; details: post-treatment
PCT cells = test: LIVE/DEAD cell viability of kidney cells under anoxia; type: cell-based, murine; details: 15 mM; anoxia O2< 0,1%; calcein-AM / homodimeric BET; Fig.1B
Method: HT22 mouse hippocampal neuronal cells were cultured in Dulbecco's modified Eagle's medium (DMEM; Gibco) supplemented with 10% FBS (Gibco), 100U/ml streptomycin, 100U/ml penicillin at 37 °C in 5% CO2/95% air. Renal PCT cells were obtained from primary cultures of murine proximal tubule segments and cultured as previously described (Melis, N. et al. Targeting eIF5A Hypusination Prevents Anoxic Cell Death through Mitochondrial Silencing and Improves Kidney Transplant Outcome. J Am Soc Nephrol 28, 811-822, doi:10.1681/ASN.2016010012 (2017)). Hypoxic or anoxic conditions were created by maintaining cell cultures at 37°C in a sealed "Bug-Box" anaerobic workstation (Ruskin Technologies). Oxygen Glucose Deprivation (OGD) was induced on HT22 cells placing them in glucose-free Hepes balanced salt solution without glucose (HBSS: NaCl 116mM, KCl 5.4mM, CaCl2 1.8mM, MgSO4 0.8mM, NAH2PO4 1mM, NaHCO3 26.2mM,; pH 7.2-7.4) in an hypoxic chamber filled with 98.5% N2 and 1.5% CO2 at 37°C for 3h. Upon removal of the cultures from the chamber, the growth medium was changed back to normal medium.
The Fluorescent LIVE/DEAD® Cell Viability/Cytotoxicity Assay Kit (Invitrogen, France) was used on PCT cells (24-well plates) according to the manufacturer's protocol. Fluorescent micrographs were recorded using an observer D1 microscope (Zeiss). […]

mice [3] = test: Rotarod test of motor recovery after tMCAo; type: in vivo; details: post-treatment, IP injection 2 hours and 2 days post-ischemia; first four days post-stroke; Fig.4A
[4] = 18 days after tMCAo, platform removed

NC(CO)C(=O)NO (stereo not drawn) [serine hydroxamate]
cerebral infarction (histological examination of brain sections) (mice [1]): reduced cerebral infarction
latency to find the hidden platform (learning) (mice [2]; 14 to 17 days after tMCAo, listed as serHX): improves latency to find the hidden platform; also recorded: significantly improved learning
searching behaviors of the platform (mice [2]; [4]): significantly improved
spatial memory (time spent in the target quadrant) (mice [2]; [4]): increasing the time spent in the target quadrant
surviving rate of kidney cells subjected to anoxia (fluorescent images) (PCT cells): highly surviving rate
post-ischemic rotarod performance (recovery of motor functions) (mice [3]): improved post-stroke recovery of motor functions
